The target of assay [1] is T1, EGFR domain IV (human, UniProt P00533 505-645).
T1 construct: Immobilised on a CM5 chip for SPR; also called domain IV of EGFR; EGFR D4
The experiment in a line: SPR, EGFR domain IV immobilised on a CM5 chip (500 RU), IgG injected in HBS-EP+, 25 C. (In general: Surface plasmon resonance follows binding to a sensor surface in real time, without labels.)

For assay [2], the target named is T1, EGFR domain IV. Briefly: SPR, EGFR domain IV immobilised on CM5 chip, IgG at 30, 10 and 3 nM, 25 C.
Assay [3] has as its target EGFR-His (UniProt P00533). Briefly: ELISA with various recombinant proteins. In general terms: An ELISA detects its analyte on a solid surface through an enzyme-linked reagent.
Assay [4] concerns the target EGFR-His (UniProt P00533). The experiment in a line: ELISA on coated recombinant proteins, title "Titer of purified mAb".

Results are given in words; binding and its absence hold for the method and conditions named. Some binding calls cover weakened binding; strength is not graded here.

B1: EGFRD4-34Ab (antibody, V domains shown)
VH: QIQLVQSGPELKKPGETVKISCKASGYTFTNYGMNWVKQAPGKGLKWMGWINTYTGDPTYADDFKGRFAFSLETSASTAYLQINNLKNEDMATYFCARRISTMITTWFAYWGQGTLVTVSA
VL: DIQMTQSPASLSASVGETVTITCRASENIYSYLAWFQQRQGKSPQLLVYNAKTLTEGVPSRFSGSGSGTQFSLKINSLQPEDFGSYYCQHYQVTPYTFGGGTKLEIK
notes: also called Clone # 34
On to B1, for which the binding result in the assay with EGFR domain IV [1] and with EGFR domain IV [2] was “binds” each time.

B2: EGFRD4-30Ab (antibody, V domains shown)
VH: DVQLQESGPDLVKPSQSLSLTCTVTGYSITSGDSWHWIRQFPGNKLEWMGYIHYSGSTKYNPSLKSRISITRDTSKNQFFLQLNSVTTEDTATYYCASWFYYAMDYWGQGTSVTVSS
VL: ENVLTQSPAIMSASPGEKVTMTCRASSSVSSSYLHWFQQKSGASPKLWIYSTSNLASGVPARFSGSGSGTSYSLTISSVEAEDAATYYCQQYSGFPLTFGAGTKLELK
On to B2, for which the binding result with EGFR domain IV [1] and with EGFR domain IV [2] was “binds” throughout.

B3: 5C8 hybridoma clone antibody (mouse, culture supernatant) (antibody, V domains shown)
VH: EVQLQQSGPELVKTGASVKISCKASGYSFTGYYMHWVKQSHGKSLEWIGYINCYNGAINYNQKFKGKATFTVDTSSSTVYMQFNSLTSEDSAVYYCVRAGIHYDYDEAWFAYWGQGTLVTVSA
VL: QAVVTQESALTTSPGETVTLTCRSSTGPVIIRNYANWVQEKPDHLFTGLIGGTNNRAPGVPARFSGSLIGDKAALTITGAQTEDEAIYFCALWYNNHWVFGGGTKLTVL
notes: Mouse antibody from hybridoma supernatant; also called 5C8 clone; Clone 5C8
For the molecule B3, the binding result with EGFR-His [3] and with EGFR-His [4] was “binds” throughout.

B4: EGFRD4-28Ab (antibody, V domains shown)
VH: EVQLQQSGPELVKPGASVKISCKASGYSFTGYYMHWVKQSHVKSLEWIGRINPYNGATIYNQNFKDKASLTVDKSSSTAYMELHSLTSEDSAVYYCARDDYEGAMDYWGQGTSVTVSS
VL: NIMMTQLPSSLAVSAGEKVTMSCKSSQSVLYISNQKNYLAWFQQKPGQSPKLLIYWASTRESGVPDRFTGSGSGTDFTLTISSVQAEDLAVYYCHQYFSSYTFGGGTKLEIK
Regarding B4, the binding entry with EGFR domain IV [1] and in the assay with EGFR domain IV [2] was “binds” each time.

These data come from patent US20240228629A1 (CITY OF HOPE, published 2024).
